Article PMC8605242
Results are given in words; binding and its absence hold for the method and conditions named. Binding calls can cover weak binding; strength is not graded here. For part of these data: Binding seen in cells or lysates may run through a third protein.

Amino acid sequences for entries named in this document (tags omitted). A change or cut given only in a name is not applied to a line headed by its entry. Residues count along the entry.
UniProt I3L1U7: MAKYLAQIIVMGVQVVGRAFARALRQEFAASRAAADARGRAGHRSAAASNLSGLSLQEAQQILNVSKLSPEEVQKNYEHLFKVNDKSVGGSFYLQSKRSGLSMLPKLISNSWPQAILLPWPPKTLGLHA
UniProt Q99595: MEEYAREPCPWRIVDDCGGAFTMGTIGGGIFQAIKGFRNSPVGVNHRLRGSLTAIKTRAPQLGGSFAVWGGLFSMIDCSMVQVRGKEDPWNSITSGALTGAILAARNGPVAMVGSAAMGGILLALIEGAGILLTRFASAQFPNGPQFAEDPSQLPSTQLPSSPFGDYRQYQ
UniProt Q96DA6: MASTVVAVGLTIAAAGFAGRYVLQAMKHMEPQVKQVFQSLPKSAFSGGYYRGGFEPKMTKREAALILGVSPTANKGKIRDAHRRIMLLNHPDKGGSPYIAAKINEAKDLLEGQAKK
UniProt O60830: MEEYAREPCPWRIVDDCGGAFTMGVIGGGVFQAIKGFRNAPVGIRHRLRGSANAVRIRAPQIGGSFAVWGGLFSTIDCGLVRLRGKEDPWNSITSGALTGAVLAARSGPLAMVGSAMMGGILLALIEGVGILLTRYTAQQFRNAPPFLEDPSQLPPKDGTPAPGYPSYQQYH
UniProt Q9Y5T4, residues 69-146: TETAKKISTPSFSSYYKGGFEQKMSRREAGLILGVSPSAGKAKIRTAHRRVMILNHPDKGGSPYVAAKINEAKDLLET

Columns and labels:
[1] = target: hexahistidine tagged Magmas-2 (human) (UniProt I3L1U7); assay: pull-down; hexahistidine tagged Magmas variants on Ni-NTA beads; lysate of 2 mg HEK293T mitochondria in 25 mM HEPES-KOH pH 7.5, 80 mM KCl, 5 mM EDTA, 20 mM imidazole, 10% glycerol, 1 mM PMSF, 0.5% NP-40; 12 h, 4 °C; washes with 0.25% NP-40; immunoblot; only the target purified
GST-Magmas-2 (human) = GST-Magmas-2 (human) (UniProt I3L1U7); assay: pull-down; 1 μM GST alone or GST-Magmas variants held on beads, increasing concentrations of DnaJC19J+T or DnaJC15J+T, 45 min, 24 °C; 50 mM Tris-HCl pH 7.5, 100 mM KCl, 0.2% Triton-X 100, 10% glycerol, 1 mM PMSF; blocked with 0.1% BSA; SDS-PAGE, Coomassie, densitometry; both purified
[2] = target: T1, Tim23-3HA (S. cerevisiae) (UniProt P32897); assay: co-IP; 2 mg yeast mitochondria from Tim23-3HA strains expressing Pam16, Magmas, Magmas-1 or Magmas-2 lysed in 25 mM Tris-HCl pH 7.5, 10% glycerol, 80 mM KCl, 5 mM EDTA, 1 mM PMSF, 1% digitonin; anti-HA antibody on protein G Sepharose, 3 h, 4 °C; washes with 0.5% digitonin; immunoblot
T1 sequence: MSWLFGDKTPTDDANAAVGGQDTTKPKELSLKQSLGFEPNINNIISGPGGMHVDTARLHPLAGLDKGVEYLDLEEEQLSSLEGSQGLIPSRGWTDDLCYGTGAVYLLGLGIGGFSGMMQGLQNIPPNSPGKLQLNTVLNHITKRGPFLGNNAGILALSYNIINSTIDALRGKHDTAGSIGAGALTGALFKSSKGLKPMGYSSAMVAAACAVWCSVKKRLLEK

Substance | binding [1] | binding (GST-Magmas-2 (human)) | further results
Tim17a (from UniProt Q99595 1-171) | binds | – | –
DnaJC19 (endogenous) (from UniProt Q96DA6 1-116) | binds weakly | – | –
Magmas-2, expressed in yeast (from UniProt I3L1U7) | – | – | binding [2]: binds

Second part, led by results:

binding [1] | binding (GST-Magmas-2 (human)) | Substance | further results
binds weakly | – | Tim17b (from UniProt O60830 1-172) | –
– | binds | DnaJC19J+T (from UniProt Q96DA6 34-112) (domain or fragment) | –
– | binds | DnaJC15J+T (from UniProt Q9Y5T4 69-146) (domain or fragment) | –
